Assay results from PMC5543055.
No constants are given. Whether binding was seen depends on the method and setting. Binding seen in cells or lysates may run through a third protein. A yes stands for co-enrichment or nearness to the bait. Other partners may have been found.

Protein sequences, listed by entry. Tags and fused reporters are not part of them.
UniProt P40337: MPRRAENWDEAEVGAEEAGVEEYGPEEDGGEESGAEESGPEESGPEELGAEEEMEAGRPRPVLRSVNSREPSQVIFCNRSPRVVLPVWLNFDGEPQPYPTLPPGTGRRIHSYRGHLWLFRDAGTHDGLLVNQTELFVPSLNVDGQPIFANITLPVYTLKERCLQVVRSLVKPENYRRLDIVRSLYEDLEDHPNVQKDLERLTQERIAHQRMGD

Target: Flag-tagged wild-type von Hippel-Lindau tumour suppressor protein (pVHL), stably expressed in HCT116 (human) (UniProt P40337)
Test: affinity purification with mass spectrometry; Flag-pVHL stably expressed in HCT116 cultured with the proteasome inhibitor MG132; affinity purification from whole cell extracts, 4-20% SDS-PAGE, bands identified by LC-MS/MS

B1: fatty acid coenzyme A ligase 5, endogenous in HCT116 (enzyme, UniProt Q9ULC5 1-683)
chain: MLFIFNFLFSPLPTPALICILTFGAAIFLWLITRPQPVLPLLDLNNQSVGIEGGARKGVSQKNNDLTSCCFSDAKTMYEVFQRGLAVSDNGPCLGYRKPNQPYRWLSYKQVSDRAEYLGSCLLHKGYKSSPDQFVGIFAQNRPEWIISELACYTYSMVAVPLYDTLGPEAIVHIVNKADIAMVICDTPQKALVLIGNVEKGFTPSLKVIILMDPFDDDLKQRGEKSGIEILSLYDAENLGKEHFRKPVPPSPEDLSVICFTSGTTGDPKGAMITHQNIVSNAAAFLKCVEHAYEPTPDDVAISYLPLAHMFERIVQAVVYSCGARVGFFQGDIRLLADDMKTLKPTLFPAVPRLLNRIYDKVQNEAKTPLKKFLLKLAVSSKFKELQKGIIRHDSFWDKLIFAKIQDSLGGRVRVIVTGAAPMSTSVMTFFRAAMGCQVYEAYGQTECTGGCTFTLPGDWTSGHVGVPLACNYVKLEDVADMNYFTVNNEGEVCIKGTNVFKGYLKDPEKTQEALDSDGWLHTGDIGRWLPNGTLKIIDRKKNIFKLAQGEYIAPEKIENIYNRSQPVLQIFVHGESLRSSLVGVVVPDTDVLPSFAAKLGVKGSFEELCQNQVVREAILEDLQKIGKESGLKTFEQVKAIFLHPEPFSIENGLLTPTLKAKRGELSKYFRTQIDSLYEHIQD
binding: binds
